Measured values published in publication PMC3917433.
These are yes or no findings as the source states them, for the method shown. Some results given as binding are weak or reduced against the parent protein; the word gives no strength.

Chains of the proteins cited; added tags and fusions are not shown. Lines headed by an entry give the natural chain unless they say otherwise; changes in a name come on top. A line that says so, or that is headed by a name, gives the form on record, which may keep a tag or linker.
Bromodomain and PHD finger containing, 1 (BRPF1) (P55201, form named): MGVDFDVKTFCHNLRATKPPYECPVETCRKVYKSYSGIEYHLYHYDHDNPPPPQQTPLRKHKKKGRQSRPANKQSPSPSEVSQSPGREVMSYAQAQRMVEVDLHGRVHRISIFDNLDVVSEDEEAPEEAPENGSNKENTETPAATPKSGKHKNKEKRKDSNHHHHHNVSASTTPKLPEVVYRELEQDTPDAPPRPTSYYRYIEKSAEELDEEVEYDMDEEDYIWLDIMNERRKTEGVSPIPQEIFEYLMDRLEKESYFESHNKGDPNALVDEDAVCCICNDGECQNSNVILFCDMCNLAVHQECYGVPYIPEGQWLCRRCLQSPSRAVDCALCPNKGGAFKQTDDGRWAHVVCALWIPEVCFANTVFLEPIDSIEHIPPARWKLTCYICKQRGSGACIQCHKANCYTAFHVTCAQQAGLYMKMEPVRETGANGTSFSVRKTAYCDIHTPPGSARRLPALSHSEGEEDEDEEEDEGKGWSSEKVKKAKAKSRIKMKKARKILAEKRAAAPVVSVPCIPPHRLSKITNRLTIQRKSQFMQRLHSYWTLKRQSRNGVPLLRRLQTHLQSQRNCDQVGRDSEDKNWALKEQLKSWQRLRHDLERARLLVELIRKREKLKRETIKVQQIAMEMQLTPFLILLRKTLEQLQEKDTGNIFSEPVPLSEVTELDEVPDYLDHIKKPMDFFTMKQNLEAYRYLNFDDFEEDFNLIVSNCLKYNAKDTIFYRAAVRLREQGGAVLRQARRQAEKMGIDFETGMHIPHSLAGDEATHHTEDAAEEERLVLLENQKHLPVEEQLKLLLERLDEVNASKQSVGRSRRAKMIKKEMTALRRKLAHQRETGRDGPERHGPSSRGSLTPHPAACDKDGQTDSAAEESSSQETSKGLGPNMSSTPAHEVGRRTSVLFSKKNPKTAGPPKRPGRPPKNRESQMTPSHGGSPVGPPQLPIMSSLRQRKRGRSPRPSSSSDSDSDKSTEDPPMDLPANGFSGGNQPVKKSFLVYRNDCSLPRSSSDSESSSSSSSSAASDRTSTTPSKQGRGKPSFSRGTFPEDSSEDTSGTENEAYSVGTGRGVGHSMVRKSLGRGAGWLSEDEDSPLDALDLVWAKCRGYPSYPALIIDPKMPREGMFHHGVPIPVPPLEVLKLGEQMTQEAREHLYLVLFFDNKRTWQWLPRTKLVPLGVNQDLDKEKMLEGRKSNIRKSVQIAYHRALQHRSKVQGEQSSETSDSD
Jumonji domain containing 3 (JMJD3) (O15054, form named): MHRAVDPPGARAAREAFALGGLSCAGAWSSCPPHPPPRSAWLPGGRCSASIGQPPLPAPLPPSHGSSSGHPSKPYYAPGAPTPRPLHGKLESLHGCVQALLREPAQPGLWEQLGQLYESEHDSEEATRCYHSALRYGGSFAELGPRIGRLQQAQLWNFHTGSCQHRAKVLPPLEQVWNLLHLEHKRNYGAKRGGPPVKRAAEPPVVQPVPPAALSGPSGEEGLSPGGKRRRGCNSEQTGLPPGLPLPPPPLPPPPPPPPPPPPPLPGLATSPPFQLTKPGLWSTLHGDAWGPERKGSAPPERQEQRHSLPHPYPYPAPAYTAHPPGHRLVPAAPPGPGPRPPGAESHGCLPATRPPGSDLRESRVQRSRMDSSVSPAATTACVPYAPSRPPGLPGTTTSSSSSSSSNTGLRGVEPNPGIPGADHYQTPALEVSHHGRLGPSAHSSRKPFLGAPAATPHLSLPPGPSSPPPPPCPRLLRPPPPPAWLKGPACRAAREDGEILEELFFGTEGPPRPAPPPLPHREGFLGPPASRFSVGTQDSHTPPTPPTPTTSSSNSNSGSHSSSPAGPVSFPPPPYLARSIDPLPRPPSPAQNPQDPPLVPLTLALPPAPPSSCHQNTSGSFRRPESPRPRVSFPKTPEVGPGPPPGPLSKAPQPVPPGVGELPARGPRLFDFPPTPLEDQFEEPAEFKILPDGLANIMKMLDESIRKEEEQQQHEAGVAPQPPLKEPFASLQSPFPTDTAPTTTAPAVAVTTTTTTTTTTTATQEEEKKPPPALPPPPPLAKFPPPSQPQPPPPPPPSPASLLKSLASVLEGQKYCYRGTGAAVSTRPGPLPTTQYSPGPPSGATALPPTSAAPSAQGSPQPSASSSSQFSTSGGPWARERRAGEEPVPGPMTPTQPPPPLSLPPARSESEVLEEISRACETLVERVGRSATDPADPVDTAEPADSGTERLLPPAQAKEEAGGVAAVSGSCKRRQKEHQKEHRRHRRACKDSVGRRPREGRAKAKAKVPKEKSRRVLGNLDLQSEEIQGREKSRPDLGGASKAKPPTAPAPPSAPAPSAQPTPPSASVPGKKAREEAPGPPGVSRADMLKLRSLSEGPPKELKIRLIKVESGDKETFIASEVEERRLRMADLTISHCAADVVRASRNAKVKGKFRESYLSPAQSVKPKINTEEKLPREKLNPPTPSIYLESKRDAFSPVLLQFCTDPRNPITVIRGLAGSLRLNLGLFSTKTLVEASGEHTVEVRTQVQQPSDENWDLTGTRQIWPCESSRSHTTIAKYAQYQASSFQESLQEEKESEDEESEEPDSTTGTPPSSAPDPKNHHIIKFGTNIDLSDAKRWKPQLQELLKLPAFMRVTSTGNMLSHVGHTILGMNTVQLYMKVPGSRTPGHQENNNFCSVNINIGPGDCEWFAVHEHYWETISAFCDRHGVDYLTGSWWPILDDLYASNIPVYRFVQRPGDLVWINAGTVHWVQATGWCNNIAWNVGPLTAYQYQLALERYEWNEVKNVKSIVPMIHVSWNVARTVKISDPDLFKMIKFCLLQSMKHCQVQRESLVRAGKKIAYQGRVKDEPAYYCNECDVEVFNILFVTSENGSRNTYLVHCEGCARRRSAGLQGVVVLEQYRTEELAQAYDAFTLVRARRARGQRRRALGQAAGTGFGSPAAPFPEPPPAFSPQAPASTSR
UniProt Q9C0C2: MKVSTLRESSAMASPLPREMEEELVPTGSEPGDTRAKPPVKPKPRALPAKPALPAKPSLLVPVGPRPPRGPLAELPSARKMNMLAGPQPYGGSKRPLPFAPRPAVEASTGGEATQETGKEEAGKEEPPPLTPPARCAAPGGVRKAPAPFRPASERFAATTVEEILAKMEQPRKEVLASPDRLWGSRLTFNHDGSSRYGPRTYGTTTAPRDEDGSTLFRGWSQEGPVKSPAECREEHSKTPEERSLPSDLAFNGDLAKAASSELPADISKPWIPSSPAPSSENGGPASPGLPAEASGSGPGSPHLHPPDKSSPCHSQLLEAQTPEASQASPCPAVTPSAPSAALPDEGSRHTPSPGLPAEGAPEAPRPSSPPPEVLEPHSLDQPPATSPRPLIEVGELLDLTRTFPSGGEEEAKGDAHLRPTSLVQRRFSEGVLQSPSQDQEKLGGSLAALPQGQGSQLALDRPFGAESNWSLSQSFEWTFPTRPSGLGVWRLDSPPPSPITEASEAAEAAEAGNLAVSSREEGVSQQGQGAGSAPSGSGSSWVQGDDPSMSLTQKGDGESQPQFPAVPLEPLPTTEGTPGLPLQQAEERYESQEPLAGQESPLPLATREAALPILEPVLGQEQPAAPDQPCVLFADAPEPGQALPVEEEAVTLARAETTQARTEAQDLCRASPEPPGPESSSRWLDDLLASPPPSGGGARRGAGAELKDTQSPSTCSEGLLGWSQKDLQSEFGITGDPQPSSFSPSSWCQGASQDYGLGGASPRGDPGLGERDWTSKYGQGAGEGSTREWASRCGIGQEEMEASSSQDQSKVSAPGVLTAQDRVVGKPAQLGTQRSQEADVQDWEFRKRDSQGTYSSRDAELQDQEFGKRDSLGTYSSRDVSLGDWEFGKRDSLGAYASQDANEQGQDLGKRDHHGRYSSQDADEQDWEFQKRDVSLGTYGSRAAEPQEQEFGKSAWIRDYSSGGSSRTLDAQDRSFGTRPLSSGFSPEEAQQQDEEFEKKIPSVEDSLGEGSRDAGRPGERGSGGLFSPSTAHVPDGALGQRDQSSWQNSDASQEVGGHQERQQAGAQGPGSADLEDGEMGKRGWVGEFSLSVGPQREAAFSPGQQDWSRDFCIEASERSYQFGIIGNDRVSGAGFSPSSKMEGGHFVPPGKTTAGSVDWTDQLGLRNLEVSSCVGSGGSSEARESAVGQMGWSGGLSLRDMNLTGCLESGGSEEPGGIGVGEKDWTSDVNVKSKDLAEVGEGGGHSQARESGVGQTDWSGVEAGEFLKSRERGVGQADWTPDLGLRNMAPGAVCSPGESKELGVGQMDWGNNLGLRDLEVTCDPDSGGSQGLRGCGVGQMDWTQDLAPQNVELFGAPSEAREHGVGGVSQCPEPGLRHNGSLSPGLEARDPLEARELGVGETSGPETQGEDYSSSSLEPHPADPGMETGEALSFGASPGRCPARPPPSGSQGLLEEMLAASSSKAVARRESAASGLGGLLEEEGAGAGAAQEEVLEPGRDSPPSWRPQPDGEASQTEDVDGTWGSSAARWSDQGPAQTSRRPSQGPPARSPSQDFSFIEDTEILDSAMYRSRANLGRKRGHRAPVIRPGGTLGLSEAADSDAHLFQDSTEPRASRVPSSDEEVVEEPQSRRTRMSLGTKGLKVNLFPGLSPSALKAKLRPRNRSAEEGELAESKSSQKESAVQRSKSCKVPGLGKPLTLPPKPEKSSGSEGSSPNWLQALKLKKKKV
UniProt P52756: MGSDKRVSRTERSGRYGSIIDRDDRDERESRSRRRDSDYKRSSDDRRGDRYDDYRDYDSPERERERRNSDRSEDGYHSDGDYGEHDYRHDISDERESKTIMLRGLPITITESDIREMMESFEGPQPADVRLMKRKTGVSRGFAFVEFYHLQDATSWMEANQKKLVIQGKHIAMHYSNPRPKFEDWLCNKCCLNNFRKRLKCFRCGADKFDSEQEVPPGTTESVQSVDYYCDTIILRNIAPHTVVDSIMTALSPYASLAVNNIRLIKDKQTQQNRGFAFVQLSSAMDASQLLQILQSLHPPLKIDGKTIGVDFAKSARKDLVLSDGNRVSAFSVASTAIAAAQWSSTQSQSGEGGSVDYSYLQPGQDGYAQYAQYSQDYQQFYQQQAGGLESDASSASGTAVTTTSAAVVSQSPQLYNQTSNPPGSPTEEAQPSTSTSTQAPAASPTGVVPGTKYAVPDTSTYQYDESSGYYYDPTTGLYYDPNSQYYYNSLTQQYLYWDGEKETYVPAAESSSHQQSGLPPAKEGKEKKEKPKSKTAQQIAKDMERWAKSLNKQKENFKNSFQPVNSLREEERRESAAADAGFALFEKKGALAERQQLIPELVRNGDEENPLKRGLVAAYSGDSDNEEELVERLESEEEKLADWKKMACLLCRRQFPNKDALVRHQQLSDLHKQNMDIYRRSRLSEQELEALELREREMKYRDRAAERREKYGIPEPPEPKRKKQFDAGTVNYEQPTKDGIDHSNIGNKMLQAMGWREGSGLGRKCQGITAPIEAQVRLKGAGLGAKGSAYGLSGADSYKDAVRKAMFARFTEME
UniProt P13202: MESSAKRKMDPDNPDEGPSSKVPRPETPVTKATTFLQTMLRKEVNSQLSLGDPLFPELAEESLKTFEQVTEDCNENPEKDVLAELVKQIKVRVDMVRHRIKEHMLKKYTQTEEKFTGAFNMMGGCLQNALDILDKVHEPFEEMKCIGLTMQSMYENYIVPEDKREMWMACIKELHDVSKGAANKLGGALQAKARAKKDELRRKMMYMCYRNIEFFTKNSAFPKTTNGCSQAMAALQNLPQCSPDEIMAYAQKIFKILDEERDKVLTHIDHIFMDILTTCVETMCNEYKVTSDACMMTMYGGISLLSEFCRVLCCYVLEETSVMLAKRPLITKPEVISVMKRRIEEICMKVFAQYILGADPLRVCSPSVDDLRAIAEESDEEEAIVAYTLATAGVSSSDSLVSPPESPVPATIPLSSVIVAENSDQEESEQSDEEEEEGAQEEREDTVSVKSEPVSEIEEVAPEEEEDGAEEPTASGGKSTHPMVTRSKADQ

Columns and labels:
Test in all cases: peptide or protein array; only the binder purified
[1] = target: T1, Heterogeneous nuclear ribonucleoprotein F (HNRPF) (human) (UniProt P52597)
T1 sequence: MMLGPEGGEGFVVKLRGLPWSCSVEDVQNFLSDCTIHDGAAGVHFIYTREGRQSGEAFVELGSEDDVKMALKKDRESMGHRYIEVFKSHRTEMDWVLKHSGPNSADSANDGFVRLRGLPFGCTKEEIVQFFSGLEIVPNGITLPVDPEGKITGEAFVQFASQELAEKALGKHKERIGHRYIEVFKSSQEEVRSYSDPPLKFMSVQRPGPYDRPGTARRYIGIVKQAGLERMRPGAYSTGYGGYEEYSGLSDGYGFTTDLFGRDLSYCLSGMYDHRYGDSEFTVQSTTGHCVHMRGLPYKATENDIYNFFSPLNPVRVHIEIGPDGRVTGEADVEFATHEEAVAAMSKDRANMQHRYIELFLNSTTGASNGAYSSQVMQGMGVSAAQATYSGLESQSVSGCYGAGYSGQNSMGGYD

[2] = target: T2, OTU domain containing 1 (OTUD1) (human) (UniProt Q5VV17)
T2 sequence: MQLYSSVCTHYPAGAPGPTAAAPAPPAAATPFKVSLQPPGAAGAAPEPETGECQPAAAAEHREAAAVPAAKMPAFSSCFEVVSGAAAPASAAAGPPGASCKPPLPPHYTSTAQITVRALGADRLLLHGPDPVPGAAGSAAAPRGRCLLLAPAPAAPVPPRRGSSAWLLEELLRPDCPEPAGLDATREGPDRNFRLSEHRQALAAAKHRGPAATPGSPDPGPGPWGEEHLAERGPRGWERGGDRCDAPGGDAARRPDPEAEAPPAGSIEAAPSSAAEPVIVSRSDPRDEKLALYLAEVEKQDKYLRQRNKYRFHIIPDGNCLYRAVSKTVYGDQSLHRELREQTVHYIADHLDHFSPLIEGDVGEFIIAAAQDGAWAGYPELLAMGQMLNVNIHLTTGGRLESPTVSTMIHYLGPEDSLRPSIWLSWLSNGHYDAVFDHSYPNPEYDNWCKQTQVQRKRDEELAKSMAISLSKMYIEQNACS

[3] = target: T3, Serine/threonine kinase ULK1 (ULK1) (human) (UniProt O75385)
T3 sequence: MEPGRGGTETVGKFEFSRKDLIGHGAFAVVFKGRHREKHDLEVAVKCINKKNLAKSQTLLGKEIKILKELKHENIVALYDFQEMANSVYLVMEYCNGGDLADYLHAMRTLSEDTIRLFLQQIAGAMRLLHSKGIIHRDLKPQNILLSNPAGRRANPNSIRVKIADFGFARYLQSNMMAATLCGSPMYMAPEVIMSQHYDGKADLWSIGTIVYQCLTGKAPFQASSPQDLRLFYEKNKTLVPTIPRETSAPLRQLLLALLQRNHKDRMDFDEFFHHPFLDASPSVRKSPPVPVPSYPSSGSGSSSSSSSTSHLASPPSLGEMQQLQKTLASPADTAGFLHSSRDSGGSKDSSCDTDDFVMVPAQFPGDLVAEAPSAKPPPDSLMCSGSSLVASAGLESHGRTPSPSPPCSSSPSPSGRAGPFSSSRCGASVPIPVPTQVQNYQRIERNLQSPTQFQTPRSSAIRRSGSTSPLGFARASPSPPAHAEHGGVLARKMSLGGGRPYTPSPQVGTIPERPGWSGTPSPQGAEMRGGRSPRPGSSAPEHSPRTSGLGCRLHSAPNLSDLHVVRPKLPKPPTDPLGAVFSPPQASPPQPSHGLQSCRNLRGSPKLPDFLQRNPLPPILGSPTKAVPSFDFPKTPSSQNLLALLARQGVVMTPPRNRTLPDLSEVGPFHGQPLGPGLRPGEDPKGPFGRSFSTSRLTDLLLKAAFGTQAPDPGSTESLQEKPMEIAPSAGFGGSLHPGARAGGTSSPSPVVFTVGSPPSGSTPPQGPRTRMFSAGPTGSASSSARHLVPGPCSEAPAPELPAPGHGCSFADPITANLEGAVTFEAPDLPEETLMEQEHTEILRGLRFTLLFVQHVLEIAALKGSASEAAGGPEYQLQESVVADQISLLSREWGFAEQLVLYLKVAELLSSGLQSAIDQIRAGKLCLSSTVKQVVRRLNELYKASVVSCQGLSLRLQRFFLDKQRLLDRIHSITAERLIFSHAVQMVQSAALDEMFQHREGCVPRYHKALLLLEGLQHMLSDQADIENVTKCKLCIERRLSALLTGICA

Sequestosome 1 (human) = Sequestosome 1 (human) (UniProt Q13501)
[4] = target: Bromodomain and PHD finger containing, 1 (BRPF1) (human) (UniProt P55201)
[5] = target: Jumonji domain containing 3 (JMJD3) (human) (UniProt O15054)
[6] = target: T4, Splicing factor, arginine/serine-rich 2 (human) (UniProt Q01130)
T4 sequence: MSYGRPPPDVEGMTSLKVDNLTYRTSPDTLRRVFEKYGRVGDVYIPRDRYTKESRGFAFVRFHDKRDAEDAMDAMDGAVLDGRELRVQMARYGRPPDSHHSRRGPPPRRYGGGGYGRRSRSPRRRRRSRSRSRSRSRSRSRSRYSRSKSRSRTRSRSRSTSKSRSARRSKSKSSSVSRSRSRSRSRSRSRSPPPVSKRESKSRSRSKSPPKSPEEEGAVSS

[7] = target: Tankyrase 1 binding protein 1, (TNKS1BP1) (human) (UniProt Q9C0C2)
[8] = target: RNA binding motif protein 5 (human) (UniProt P52756)

Measured: binding

Human cytomegalovirus immediate-early protein 1 (from UniProt P13202 1-491)
binds: all assays above
